Measurements reported in PubChem BioAssay AID1224830 (NIAID, 2016).

Purpose: 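Regulators of TLR4 signalling towards TNF-alpha in macrophage-like cells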 (primary screen)
Cells: human THP-1 monocytic leukaemia cells, TNF dual-luciferase reporter clone, PMA-differentiated to macrophage-like cells
Knock-down reagent: siRNA pool against human genes, 50 nM
Timing: LPS for 4 h, given about 3 days after siRNA transfection
Conditions: bacterial LPS (TLR4 ligand), 10 ng/ml
Detection: 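Ratio of firefly to renilla light, scaled to the plate median and expressed as a robust z-score per replicate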
Direction: TNF reporter robust z-score: higher = stronger TNF reporter response to LPS
Hit rule: 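Each well counts as active if its z-score is over 2.8 or under -1.5; controls are left without a call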
In all, the deposit lists about 18,000 reagents; shown is a part drawn at random. About 2,900 of all reagents (16%) count as active. 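Calls are made per well; low scores hint the gene aids the LPS response, high scores that it dampens it.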 Repeated entries: four replicate wells of each siRNA pool. No sequences are given here.

| Gene | TNF reporter robust z-score | Outcome |
| --- | --- | --- |
| EEIG1 (GeneID 399665) | 0.02 | inactive |
| EEIG1 (GeneID 399665) | 0.11 | inactive |
| EEIG1 (GeneID 399665) | -0.05 | inactive |
| EEIG1 (GeneID 399665) | 1.55 | inactive |
| CXXC4 (GeneID 80319) | -0.25 | inactive |
| CXXC4 (GeneID 80319) | -0.38 | inactive |
| CXXC4 (GeneID 80319) | -0.78 | inactive |
| CXXC4 (GeneID 80319) | -0.14 | inactive |
| ZNF669 (GeneID 79862) | -0.99 | inactive |
| ZNF669 (GeneID 79862) | -0.2 | inactive |
| ZNF669 (GeneID 79862) | -0.17 | inactive |
| GTF3C3 (GeneID 9330) | 0.47 | inactive |
| GTF3C3 (GeneID 9330) | 0.61 | inactive |
| GTF3C3 (GeneID 9330) | -0.08 | inactive |
| GTF3C3 (GeneID 9330) | -1.16 | inactive |
| CTNNA1 (GeneID 1495) | 0.42 | inactive |
| CTNNA1 (GeneID 1495) | 0.74 | inactive |
| CTNNA1 (GeneID 1495) | 1.13 | inactive |
| CTNNA1 (GeneID 1495) | -0.6 | inactive |
| SYVN1 (GeneID 84447) | -0.83 | inactive |
| SYVN1 (GeneID 84447) | -0.12 | inactive |
| SYVN1 (GeneID 84447) | 0.9 | inactive |
| SYVN1 (GeneID 84447) | 0.85 | inactive |
| KIAA0319 (GeneID 9856) | -0.28 | inactive |
| KIAA0319 (GeneID 9856) | 0.16 | inactive |
| KIAA0319 (GeneID 9856) | -0.08 | inactive |
| KIAA0319 (GeneID 9856) | 0.77 | inactive |
| ZNF138 (GeneID 7697) | 0.58 | inactive |
| ZNF138 (GeneID 7697) | -0.45 | inactive |
| ZNF138 (GeneID 7697) | 0.92 | inactive |
| ZNF138 (GeneID 7697) | 0.62 | inactive |
| NEIL3 (GeneID 55247) | 1.45 | inactive |
| NEIL3 (GeneID 55247) | 2.2 | inactive |
| NEIL3 (GeneID 55247) | 1.55 | inactive |
| NEIL3 (GeneID 55247) | 1.57 | inactive |
| RAB6B (GeneID 51560) | 1.69 | inactive |
| RAB6B (GeneID 51560) | -1.43 | inactive |
| RAB6B (GeneID 51560) | 1.44 | inactive |
| RAB6B (GeneID 51560) | 1.16 | inactive |
| TSPY2 (GeneID 64591) | -0.3 | inactive |
| TSPY2 (GeneID 64591) | 0.07 | inactive |
| TSPY2 (GeneID 64591) | -0.13 | inactive |
| TSPY2 (GeneID 64591) | -0.01 | inactive |
| KMT5B (GeneID 51111) | -1.3 | inactive |
| KMT5B (GeneID 51111) | -1.31 | inactive |
| KMT5B (GeneID 51111) | -1.25 | inactive |
| KMT5B (GeneID 51111) | -0.83 | inactive |
| CABLES2 (GeneID 81928) | -0.75 | inactive |
| CABLES2 (GeneID 81928) | -0.59 | inactive |
| CABLES2 (GeneID 81928) | -0.72 | inactive |
| CABLES2 (GeneID 81928) | -1.34 | inactive |
| DDA1 (GeneID 79016) | -0.25 | inactive |
| DDA1 (GeneID 79016) | -0.87 | inactive |
| DDA1 (GeneID 79016) | -0.62 | inactive |
| DDA1 (GeneID 79016) | -0.23 | inactive |
| CELA2A (GeneID 63036) | 0.41 | inactive |
| CELA2A (GeneID 63036) | -0.06 | inactive |
| CELA2A (GeneID 63036) | 0.53 | inactive |
| CELA2A (GeneID 63036) | 3.13 | active |
| CDCP1 (GeneID 64866) | 0.34 | inactive |
| CDCP1 (GeneID 64866) | 0.11 | inactive |
| CDCP1 (GeneID 64866) | -0.01 | inactive |
| RNASE3 (GeneID 6037) | 0.79 | inactive |
| RNASE3 (GeneID 6037) | 0.02 | inactive |
| RNASE3 (GeneID 6037) | 0.61 | inactive |
| RNASE3 (GeneID 6037) | 0.38 | inactive |
| RAB3IL1 (GeneID 5866) | 1.69 | inactive |
| RAB3IL1 (GeneID 5866) | 1.51 | inactive |
| RAB3IL1 (GeneID 5866) | 2.26 | inactive |
| RAB3IL1 (GeneID 5866) | -0.94 | inactive |
| IPPK (GeneID 64768) | -0.27 | inactive |
| IPPK (GeneID 64768) | -0.69 | inactive |
| IPPK (GeneID 64768) | 0.98 | inactive |
| IPPK (GeneID 64768) | 0.85 | inactive |
| MPZL2 (GeneID 10205) | 1.51 | inactive |
| MPZL2 (GeneID 10205) | 0.04 | inactive |
| MPZL2 (GeneID 10205) | 0.34 | inactive |
| MPZL2 (GeneID 10205) | 1.69 | inactive |

Records above whose gene name begins with S or s:
| Gene | TNF reporter robust z-score | Outcome |
| --- | --- | --- |
| SYVN1 (GeneID 84447) | -0.83 | inactive |
| SYVN1 (GeneID 84447) | -0.12 | inactive |
| SYVN1 (GeneID 84447) | 0.9 | inactive |
| SYVN1 (GeneID 84447) | 0.85 | inactive |
